Reference: the supplement of paper PMC10849652
The list shows a part of the results.

The chains behind the UniProt entries cited, without tags or fusion partners. Where a name states a change or a piece, a line headed by the entry shows the natural chain unless it says otherwise.
UniProt Q96H20: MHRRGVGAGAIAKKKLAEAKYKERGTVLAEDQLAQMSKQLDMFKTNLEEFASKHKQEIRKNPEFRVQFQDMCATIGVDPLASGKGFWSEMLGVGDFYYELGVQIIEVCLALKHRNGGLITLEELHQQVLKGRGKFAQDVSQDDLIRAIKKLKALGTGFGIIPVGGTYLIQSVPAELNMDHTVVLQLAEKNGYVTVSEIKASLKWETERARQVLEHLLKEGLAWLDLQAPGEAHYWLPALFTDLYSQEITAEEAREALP
UniProt Q96EX1: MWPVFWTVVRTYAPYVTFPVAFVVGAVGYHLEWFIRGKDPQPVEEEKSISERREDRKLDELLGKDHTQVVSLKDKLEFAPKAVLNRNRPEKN
UniProt P62306, whole entry, looked up: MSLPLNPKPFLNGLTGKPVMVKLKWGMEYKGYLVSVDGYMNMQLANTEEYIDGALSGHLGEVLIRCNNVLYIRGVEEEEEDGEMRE
UniProt P08621, whole entry, looked up: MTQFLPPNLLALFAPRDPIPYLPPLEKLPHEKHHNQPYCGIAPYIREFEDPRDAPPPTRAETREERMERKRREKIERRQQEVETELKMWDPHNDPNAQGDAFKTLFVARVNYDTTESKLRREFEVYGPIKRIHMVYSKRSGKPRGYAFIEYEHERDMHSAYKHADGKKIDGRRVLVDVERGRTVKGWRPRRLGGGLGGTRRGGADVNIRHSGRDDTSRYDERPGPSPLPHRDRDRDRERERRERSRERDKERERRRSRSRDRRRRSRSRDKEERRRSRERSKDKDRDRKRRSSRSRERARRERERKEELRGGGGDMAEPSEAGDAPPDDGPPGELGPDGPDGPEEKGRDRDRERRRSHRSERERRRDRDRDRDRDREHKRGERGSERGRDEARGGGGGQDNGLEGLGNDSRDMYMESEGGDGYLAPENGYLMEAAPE
UniProt Q96BD0: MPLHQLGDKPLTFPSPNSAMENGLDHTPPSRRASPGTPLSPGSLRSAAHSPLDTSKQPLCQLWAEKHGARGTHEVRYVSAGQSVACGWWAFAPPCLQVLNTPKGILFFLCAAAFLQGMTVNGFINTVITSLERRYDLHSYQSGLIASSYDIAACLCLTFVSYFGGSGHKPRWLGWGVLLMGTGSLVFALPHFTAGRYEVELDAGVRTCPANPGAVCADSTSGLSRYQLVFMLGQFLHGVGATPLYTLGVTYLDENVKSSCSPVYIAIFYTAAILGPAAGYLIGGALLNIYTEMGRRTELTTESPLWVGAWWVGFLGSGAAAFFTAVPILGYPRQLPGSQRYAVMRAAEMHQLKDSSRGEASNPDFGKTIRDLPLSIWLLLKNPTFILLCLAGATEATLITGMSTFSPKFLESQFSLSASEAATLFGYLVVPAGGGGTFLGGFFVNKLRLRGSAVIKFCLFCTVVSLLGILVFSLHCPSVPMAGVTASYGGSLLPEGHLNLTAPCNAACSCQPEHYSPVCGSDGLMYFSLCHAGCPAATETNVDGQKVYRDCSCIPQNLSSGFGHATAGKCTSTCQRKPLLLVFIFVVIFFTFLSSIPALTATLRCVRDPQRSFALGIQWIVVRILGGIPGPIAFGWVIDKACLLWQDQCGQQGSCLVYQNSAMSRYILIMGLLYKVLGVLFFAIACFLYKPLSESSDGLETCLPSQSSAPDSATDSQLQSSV
UniProt Q9NTJ3, whole entry, looked up: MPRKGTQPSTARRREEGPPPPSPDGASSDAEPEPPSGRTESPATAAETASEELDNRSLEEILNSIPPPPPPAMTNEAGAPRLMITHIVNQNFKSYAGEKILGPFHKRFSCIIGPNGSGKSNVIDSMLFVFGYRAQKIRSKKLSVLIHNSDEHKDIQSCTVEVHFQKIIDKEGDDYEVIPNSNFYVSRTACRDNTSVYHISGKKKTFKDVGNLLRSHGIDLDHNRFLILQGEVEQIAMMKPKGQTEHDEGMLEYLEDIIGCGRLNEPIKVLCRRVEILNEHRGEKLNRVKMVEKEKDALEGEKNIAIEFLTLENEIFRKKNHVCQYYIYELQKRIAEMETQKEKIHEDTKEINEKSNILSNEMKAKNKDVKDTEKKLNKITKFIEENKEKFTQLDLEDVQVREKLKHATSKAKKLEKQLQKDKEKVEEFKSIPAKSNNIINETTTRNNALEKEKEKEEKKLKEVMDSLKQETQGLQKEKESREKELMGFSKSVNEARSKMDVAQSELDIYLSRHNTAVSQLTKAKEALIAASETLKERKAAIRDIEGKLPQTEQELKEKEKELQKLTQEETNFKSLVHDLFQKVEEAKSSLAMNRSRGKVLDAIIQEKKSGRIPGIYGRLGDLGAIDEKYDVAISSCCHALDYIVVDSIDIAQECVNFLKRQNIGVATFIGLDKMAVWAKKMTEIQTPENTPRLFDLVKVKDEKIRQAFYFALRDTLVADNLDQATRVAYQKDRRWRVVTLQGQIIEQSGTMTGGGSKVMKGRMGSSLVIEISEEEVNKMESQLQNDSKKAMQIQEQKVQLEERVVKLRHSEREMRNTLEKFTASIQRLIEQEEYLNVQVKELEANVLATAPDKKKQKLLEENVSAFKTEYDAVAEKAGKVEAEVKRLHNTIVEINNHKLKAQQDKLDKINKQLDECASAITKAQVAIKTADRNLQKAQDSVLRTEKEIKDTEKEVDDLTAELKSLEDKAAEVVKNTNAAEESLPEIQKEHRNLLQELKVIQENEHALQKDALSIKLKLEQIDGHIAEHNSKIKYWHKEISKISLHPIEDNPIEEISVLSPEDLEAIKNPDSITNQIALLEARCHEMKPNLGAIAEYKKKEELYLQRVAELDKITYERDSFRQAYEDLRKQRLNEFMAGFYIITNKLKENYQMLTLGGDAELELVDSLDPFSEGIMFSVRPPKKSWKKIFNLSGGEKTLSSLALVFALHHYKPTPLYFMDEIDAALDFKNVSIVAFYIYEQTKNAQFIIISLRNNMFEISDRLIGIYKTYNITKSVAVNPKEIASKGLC
UniProt P09661: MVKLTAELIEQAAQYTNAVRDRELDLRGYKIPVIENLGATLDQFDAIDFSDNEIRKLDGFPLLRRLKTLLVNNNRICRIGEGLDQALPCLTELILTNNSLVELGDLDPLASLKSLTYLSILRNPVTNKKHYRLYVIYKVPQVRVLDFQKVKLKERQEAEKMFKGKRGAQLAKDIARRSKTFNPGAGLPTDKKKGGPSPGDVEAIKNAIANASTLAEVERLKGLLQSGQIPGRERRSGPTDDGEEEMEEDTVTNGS
UniProt Q9UQE7: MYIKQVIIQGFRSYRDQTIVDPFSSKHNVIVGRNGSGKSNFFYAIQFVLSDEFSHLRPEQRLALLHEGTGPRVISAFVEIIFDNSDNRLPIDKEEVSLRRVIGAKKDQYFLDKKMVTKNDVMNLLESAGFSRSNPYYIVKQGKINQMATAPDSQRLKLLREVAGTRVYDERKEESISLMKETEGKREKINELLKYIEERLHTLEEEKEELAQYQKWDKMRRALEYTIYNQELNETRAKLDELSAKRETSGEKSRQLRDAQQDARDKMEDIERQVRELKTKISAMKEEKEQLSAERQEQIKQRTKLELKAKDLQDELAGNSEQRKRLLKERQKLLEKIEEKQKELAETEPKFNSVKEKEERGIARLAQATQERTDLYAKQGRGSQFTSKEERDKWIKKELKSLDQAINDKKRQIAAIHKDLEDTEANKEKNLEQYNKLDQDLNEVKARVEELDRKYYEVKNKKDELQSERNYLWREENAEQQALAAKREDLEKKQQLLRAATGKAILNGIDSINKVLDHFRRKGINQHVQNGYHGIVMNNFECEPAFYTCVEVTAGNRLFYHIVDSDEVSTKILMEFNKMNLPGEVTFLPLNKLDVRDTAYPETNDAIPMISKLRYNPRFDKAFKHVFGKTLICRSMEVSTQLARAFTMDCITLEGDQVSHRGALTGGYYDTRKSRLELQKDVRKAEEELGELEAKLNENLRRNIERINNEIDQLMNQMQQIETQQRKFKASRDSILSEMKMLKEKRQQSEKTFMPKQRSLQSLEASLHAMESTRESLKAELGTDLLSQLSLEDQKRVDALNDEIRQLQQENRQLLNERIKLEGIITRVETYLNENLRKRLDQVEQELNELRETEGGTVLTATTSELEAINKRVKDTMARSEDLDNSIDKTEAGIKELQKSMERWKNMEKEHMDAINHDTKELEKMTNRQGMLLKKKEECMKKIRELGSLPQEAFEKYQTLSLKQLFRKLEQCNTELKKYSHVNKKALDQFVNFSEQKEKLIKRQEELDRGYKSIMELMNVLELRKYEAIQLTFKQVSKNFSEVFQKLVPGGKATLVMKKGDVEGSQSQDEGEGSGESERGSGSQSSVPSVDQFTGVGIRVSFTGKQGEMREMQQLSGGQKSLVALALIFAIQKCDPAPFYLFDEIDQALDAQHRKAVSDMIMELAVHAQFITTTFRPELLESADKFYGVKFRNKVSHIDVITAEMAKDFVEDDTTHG
UniProt Q14BN4: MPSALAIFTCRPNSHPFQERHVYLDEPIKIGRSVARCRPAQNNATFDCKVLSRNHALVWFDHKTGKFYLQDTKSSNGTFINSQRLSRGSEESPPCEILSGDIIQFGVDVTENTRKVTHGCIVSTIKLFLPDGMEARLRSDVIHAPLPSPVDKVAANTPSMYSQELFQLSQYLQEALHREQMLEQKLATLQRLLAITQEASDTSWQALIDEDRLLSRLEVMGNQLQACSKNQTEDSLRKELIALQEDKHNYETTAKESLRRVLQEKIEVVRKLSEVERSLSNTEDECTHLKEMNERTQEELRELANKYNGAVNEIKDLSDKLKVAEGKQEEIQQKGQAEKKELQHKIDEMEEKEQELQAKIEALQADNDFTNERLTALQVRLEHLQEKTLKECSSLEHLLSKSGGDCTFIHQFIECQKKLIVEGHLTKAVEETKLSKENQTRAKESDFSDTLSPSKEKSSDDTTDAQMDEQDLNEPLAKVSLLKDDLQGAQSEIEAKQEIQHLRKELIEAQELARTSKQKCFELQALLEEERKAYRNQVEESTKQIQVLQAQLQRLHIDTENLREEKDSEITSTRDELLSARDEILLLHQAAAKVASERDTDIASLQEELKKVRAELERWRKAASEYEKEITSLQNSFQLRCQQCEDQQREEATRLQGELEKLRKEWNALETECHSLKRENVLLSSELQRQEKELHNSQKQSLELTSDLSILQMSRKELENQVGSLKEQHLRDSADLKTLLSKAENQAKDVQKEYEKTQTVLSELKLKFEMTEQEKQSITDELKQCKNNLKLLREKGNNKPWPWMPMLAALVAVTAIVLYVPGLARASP
UniProt O95721: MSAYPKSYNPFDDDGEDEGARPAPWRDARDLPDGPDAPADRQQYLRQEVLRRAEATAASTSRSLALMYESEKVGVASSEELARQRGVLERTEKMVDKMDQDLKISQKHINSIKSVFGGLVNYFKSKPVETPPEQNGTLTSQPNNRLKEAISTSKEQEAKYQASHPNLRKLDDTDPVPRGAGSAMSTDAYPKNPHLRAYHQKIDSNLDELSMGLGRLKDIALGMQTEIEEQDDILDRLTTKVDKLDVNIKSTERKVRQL
UniProt Q15599: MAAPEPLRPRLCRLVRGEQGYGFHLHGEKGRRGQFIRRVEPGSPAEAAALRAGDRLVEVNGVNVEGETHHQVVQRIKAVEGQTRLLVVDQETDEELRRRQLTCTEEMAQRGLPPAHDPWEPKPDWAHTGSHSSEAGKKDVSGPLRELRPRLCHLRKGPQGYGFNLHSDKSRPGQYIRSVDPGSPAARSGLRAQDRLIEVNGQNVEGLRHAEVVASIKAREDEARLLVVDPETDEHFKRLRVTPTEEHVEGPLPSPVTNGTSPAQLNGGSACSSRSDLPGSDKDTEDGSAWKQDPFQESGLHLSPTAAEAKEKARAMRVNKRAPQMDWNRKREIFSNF
UniProt P09234, whole entry, looked up: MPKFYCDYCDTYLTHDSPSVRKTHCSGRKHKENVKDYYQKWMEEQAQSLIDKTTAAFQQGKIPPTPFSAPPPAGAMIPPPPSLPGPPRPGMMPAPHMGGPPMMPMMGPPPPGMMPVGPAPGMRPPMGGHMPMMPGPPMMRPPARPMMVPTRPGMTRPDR
UniProt P62304, whole entry, looked up: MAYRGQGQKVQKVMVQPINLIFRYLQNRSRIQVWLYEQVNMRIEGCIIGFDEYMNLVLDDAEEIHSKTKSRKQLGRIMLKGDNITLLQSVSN
UniProt O95295: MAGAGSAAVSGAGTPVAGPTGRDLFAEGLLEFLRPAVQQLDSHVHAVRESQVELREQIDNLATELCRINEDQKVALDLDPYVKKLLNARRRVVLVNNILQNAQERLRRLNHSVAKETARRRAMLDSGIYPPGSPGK
UniProt Q6GMV2: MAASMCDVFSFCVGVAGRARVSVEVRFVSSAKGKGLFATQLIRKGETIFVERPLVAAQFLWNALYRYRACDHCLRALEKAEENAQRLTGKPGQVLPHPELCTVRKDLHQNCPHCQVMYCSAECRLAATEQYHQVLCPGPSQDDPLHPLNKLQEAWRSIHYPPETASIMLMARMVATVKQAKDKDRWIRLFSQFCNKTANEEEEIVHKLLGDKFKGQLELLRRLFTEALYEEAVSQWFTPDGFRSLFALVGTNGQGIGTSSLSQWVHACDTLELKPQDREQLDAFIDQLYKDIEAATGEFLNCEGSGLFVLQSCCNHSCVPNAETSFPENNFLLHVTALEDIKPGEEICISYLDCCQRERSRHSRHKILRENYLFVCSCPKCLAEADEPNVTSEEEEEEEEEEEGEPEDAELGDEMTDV

compound: NC(=O)c1cnc(N[C@@H]2CCCC[C@@H]2N)nc1Nc1cccc(-n2nccn2)c1; assay: log2 fold change, soluble protein after heating vs DMSO (PISA); higher = thermal stabilisation; K562 cells, 10 uM, 30 min; active = over 0.2 and 3.5 SD of the protein, either way, in both replicates (recomputed)
How it was run: (§1)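 For each measurement, 10 μM compound was applied for 30 min to K562 cells at 2×10^6 cells/mL. Aliquots were heated for 3 min across 48°C-58°C, pooled, and extracted in PBS with 0.5% NP-40 at 4°C; the supernatant after 21,000xg for 90 min was soluble protein. This was quantified by TMTpro 16plex LC-MS/MS with channel sums equalised, and thermal stability was reported relative to control samples from duplicates, on a log2 fold-change scale.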

log2 fold change, inactive:
SMARCC2 (UniProt Q8TAQ2) -0.212
SNF8 (UniProt Q96H20) -0.049
SNCA (UniProt P37840) -0.015
SMS (UniProt P52788) -0.021
SMARCC1 (UniProt Q92922) -0.032
SLC9A1 (UniProt P19634) -0.012
SMIM12 (UniProt Q96EX1) 0.098
SMC2 (UniProt O95347) 0.001
SNU13, A0A3B3IUA2 -0.187
SMU1 (UniProt Q2TAY7) -0.054
SOCS2 (UniProt O14508) 0.002
SND1 (UniProt Q7KZF4) 0.112
SNRPD2 (UniProt P62316) 0.006
SNAP23 (UniProt O00161) 0.014
SNRPF (UniProt P62306) -0.031
SPA17 (UniProt Q15506) 0.011
SNRNP70 (UniProt P08621) 0.005
SLCO4A1 (UniProt Q96BD0) 0.006
SMC4 (UniProt Q9NTJ3) -0.05
SNRPA1 (UniProt P09661) 0.003
SMN1 (UniProt Q16637) 0.077
SMIM8 (UniProt Q96KF7) 0.007
SNRPC (UniProt Q5TAL2) 0
SMC3 (UniProt Q9UQE7) -0.061
SMC1A (UniProt Q14683) -0.032
SPAG5 (UniProt Q96R06) -0.326
SNRNP200 (UniProt O75643) -0.029
SLMAP (UniProt Q14BN4) -0.006
SNRPG (UniProt P62308) -0.034
SNAP29 (UniProt O95721) -0.01
SNRPA (UniProt P09012) 0.04
SMC6 isoform 2 (UniProt Q96SB8) 0.012
SMC1B isoform 3 (UniProt Q8NDV3) 0.173
SMIM26, A0A096LP01 -0.043
SMARCA1 (UniProt P28370) -0.307
SLC9A3R2 (UniProt Q15599) 0.02
SNRPC (UniProt P09234) 0.1
SNRPE (UniProt P62304) 0.001
SNAPIN (UniProt O95295) -0.041
SMYD5 (UniProt Q6GMV2) -0.044

compound: NC1(c2ccc(-c3nc4ccn5c(=O)[nH]nc5c4cc3-c3ccccc3)cc2)CCC1; assay: as above
How it was run: as §1

log2 fold change, inactive:
SMARCC2 (UniProt Q8TAQ2) -0.05
SNF8 (UniProt Q96H20) -0.04
SNCA (UniProt P37840) 0.024
SMS (UniProt P52788) -0.036
SMARCC1 (UniProt Q92922) -0.012
SLC9A1 (UniProt P19634) 0
SMIM12 (UniProt Q96EX1) 0.169
SMC2 (UniProt O95347) -0.039
SNU13, A0A3B3IUA2 -0.018
SMU1 (UniProt Q2TAY7) 0.004
SOCS2 (UniProt O14508) -0.014
SND1 (UniProt Q7KZF4) 0.423
SNRPD2 (UniProt P62316) 0.03
SNAP23 (UniProt O00161) 0.024
SNRPF (UniProt P62306) 0.133
SPA17 (UniProt Q15506) -0.203
SNRNP70 (UniProt P08621) 0.27
SLCO4A1 (UniProt Q96BD0) 0.065
SMC4 (UniProt Q9NTJ3) -0.079
SNRPA1 (UniProt P09661) 0.06
SMN1 (UniProt Q16637) 0.215
SMIM8 (UniProt Q96KF7) 0.061
SNRPC (UniProt Q5TAL2) 0.083
SMC3 (UniProt Q9UQE7) -0.011
SMC1A (UniProt Q14683) -0.01
SPAG5 (UniProt Q96R06) 0.035
SNRNP200 (UniProt O75643) 0.01
SLMAP (UniProt Q14BN4) 0.035
SNRPG (UniProt P62308) 0.069
SNAP29 (UniProt O95721) -0.015
SNRPA (UniProt P09012) 0.178
SMC6 isoform 2 (UniProt Q96SB8) -0.011
SMC1B isoform 3 (UniProt Q8NDV3) -0.081
SMIM26, A0A096LP01 -0.137
SMARCA1 (UniProt P28370) -0.085
SLC9A3R2 (UniProt Q15599) 0.019
SNRPC (UniProt P09234) 0.136
SNRPE (UniProt P62304) 0.043
SNAPIN (UniProt O95295) -0.044
SMYD5 (UniProt Q6GMV2) 0.018
